According to patent US12281304B2, “Compositions and methods for treating and preventing muscular disorders and dystrophies, steroid side effects, and inflammation” (Children's National Medical Center, priority 2018, dated 2025):
Some of these results come from one statement about several compounds together.

Test system: miRNAs in diaphragm muscle of mdx mice
Assay: qRT-PCR of individual miRNAs in diaphragm, validation set (4-month treatment, treadmill-run mdx mice)
Type: in vivo, mouse
Settings: 6 months of age, prednisolone 5 mg/kg, vamorolone 45 mg/kg for 4 months
Source text: Archival muscle samples (diaphragm) from two separate preclinical studies were obtained, with each trial showing a significant benefit from both prednisolone and vamorolone drug treatments (23). Prednisolone was used because it is the active form of prednisone, the current DMD standard of care. The first, “discovery set” of diaphragm muscles was from a prophylactic trial design where 2-week old (postnatal day 15) mdx or wild type control mice received oral dosing for 6 weeks with vehicle (cherry syrup), prednisolone (5 mg/kg), or vamorolone (15 mg/kg) as previously reported (23). […]
Specific miRNAs were quantified in the validation set of samples using individual TaqMan assays specific for each miRNA (ThermoFisher; Carlsbad, Calif.) according to the manufacturer's protocol. […] The miRNAs were then quantified using individual TaqMan assays on an ABI QuantStudio 7 real time PCR machine (Applied Biosystems; Foster City, Calif.).
In the discovery set experiments, levels of each miRNA were quantified in TaqMan low-density arrays using ThermoFisher Cloud software with the Relative Quantification Application (ThermoFisher; Carlsbad, Calif.) tool. Data was analyzed by ANOVA with post-hoc comparison of each group to the mdx vehicle-treated group. […] Data from individual TaqMan Assays was quantified using QuantStudio Real-Time PCR version 1.3 software (Applied Biosystems; Foster City, Calif.). […]

**Q.** Which “decrease of miR-324-3p” value does the source give for `C[C@]12C=CC(=O)C=C1CC[C@@H]1[C@@H]2[C@@H](O)C[C@@]2(C)[C@H]1CC[C@]2(O)C(=O)CO` [prednisolone] here?
**A.** 30-50%

**Q.** For `C[C@@H]1C[C@H]2[C@@H]3CCC4=CC(=O)C=C[C@]4(C)C3=CC[C@]2(C)[C@@]1(O)C(=O)CO` [vamorolone], which “decrease of miR-324-3p” value is on record?
**A.** 30-50%
